The text below walks through data of paper PMC10781861.

Amino acid sequences for entries named in this document (tags omitted). A change or cut given only in a name is not applied to a line headed by its entry.
UniProt Q4QC86: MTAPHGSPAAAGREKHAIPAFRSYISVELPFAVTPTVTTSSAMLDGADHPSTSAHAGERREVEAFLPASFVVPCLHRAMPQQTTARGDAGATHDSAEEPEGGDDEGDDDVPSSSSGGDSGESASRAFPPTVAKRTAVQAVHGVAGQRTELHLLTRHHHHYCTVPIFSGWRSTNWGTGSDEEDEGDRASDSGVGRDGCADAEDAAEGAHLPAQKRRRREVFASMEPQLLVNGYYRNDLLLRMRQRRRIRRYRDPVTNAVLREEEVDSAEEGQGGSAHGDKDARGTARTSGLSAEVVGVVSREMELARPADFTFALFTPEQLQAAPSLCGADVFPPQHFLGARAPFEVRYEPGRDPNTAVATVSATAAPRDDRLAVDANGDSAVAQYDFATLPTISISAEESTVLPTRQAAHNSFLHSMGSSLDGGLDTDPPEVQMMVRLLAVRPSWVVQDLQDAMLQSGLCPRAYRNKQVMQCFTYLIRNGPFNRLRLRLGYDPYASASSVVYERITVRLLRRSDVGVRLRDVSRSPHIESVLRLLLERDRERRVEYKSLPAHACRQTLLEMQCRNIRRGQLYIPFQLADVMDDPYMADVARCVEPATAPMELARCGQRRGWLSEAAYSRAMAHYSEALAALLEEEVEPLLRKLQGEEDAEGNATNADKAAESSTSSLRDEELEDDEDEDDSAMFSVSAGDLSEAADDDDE
UniProt Q4Q2W6: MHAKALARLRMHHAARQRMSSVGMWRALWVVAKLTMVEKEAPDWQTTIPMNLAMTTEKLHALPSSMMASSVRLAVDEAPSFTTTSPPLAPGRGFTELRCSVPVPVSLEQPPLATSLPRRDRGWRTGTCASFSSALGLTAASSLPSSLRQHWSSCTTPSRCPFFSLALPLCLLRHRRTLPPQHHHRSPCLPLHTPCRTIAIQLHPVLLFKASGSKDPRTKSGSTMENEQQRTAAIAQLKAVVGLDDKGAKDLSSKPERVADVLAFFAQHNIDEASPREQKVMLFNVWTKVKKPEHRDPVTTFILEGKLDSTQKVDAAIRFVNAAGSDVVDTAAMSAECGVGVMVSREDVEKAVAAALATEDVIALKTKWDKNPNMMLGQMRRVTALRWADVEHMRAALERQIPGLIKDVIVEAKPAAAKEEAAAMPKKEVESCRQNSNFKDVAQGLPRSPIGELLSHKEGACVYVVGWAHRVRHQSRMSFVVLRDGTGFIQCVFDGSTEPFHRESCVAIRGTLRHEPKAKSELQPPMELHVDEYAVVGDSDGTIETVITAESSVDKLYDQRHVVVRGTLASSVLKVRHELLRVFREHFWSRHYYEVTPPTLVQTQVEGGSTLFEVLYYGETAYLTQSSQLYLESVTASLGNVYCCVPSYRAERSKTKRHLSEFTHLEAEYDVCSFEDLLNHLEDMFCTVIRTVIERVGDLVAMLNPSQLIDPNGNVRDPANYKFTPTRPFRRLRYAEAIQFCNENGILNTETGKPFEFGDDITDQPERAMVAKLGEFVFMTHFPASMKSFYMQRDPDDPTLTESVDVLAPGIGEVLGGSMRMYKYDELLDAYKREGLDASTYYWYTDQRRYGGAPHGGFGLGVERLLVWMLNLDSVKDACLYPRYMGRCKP
UniProt Q4QHJ7: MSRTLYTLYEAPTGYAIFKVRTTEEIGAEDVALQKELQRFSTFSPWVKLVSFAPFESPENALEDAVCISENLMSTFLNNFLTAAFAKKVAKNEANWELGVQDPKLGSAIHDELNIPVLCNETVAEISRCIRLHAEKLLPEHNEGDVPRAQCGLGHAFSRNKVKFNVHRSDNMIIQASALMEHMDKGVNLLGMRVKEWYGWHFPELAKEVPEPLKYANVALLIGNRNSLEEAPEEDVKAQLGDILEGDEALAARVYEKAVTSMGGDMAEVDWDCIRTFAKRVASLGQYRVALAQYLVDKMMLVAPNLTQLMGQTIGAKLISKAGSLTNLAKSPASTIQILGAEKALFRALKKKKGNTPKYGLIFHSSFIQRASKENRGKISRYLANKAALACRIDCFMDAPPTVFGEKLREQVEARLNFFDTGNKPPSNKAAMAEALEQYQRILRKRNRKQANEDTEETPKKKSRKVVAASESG
UniProt Q4QJI9: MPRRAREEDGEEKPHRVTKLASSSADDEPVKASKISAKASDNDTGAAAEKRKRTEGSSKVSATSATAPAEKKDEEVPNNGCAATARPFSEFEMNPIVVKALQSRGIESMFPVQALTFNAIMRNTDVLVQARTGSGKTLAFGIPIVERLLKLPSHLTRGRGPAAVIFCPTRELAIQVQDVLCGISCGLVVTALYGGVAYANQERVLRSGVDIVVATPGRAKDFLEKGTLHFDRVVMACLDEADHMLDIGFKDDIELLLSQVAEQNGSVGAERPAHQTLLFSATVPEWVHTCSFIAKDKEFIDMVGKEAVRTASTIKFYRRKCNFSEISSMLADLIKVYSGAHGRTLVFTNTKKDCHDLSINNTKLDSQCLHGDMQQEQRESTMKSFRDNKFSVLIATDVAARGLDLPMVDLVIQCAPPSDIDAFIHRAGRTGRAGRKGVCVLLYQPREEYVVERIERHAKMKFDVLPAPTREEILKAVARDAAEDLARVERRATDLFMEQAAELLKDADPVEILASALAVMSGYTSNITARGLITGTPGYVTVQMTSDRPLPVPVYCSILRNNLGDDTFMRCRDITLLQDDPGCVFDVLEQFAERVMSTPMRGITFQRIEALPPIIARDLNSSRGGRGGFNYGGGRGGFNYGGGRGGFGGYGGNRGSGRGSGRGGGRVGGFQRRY
UniProt Q4Q0H2: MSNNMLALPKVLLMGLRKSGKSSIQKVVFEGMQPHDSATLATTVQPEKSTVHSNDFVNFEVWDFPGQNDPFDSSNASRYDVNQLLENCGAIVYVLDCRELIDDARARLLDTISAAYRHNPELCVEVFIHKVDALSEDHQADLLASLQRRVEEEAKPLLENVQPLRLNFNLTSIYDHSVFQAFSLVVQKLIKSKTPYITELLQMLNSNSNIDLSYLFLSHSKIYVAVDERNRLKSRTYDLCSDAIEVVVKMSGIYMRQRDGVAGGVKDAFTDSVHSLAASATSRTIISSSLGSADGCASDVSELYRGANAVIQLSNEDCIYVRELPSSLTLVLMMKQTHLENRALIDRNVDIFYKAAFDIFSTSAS
UniProt Q4QAN4: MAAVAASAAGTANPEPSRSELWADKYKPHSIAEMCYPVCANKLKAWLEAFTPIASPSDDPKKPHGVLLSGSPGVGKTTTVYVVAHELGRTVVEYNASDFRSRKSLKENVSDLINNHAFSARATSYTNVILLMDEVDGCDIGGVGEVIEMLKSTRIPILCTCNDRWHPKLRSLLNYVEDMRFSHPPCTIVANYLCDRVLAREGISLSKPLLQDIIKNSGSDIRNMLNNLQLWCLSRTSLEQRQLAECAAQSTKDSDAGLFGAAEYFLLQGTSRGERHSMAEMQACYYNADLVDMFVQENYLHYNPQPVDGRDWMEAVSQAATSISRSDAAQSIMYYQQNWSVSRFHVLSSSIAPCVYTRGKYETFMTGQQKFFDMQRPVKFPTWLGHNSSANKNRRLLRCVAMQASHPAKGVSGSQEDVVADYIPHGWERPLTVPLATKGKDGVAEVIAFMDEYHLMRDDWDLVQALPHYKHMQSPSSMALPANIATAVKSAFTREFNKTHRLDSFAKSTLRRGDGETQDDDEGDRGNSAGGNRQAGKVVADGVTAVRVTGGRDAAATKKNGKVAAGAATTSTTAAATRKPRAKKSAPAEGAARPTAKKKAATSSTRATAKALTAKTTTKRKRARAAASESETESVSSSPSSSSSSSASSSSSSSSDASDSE
UniProt Q4Q732: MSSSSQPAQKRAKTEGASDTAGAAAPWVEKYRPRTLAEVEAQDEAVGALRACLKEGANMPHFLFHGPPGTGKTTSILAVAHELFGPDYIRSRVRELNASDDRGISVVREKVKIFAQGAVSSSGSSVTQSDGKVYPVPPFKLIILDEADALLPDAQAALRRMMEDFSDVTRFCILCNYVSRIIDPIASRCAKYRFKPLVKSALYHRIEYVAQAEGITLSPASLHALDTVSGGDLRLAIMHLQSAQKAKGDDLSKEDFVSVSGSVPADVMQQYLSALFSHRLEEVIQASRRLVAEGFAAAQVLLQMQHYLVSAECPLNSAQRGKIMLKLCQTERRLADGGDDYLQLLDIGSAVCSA
UniProt Q4Q2T4: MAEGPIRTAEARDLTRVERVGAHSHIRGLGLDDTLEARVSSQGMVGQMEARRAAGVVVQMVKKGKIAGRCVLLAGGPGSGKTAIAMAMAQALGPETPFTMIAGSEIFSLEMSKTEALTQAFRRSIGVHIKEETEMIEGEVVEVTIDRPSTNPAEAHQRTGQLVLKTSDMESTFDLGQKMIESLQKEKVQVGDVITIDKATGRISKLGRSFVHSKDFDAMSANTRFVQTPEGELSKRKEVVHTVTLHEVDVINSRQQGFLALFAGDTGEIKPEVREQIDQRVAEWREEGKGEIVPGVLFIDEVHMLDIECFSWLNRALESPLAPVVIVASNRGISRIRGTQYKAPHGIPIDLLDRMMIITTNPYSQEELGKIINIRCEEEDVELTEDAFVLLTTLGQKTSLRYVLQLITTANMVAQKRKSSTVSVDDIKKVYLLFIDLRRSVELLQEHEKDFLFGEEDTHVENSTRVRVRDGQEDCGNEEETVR
UniProt E9AD76: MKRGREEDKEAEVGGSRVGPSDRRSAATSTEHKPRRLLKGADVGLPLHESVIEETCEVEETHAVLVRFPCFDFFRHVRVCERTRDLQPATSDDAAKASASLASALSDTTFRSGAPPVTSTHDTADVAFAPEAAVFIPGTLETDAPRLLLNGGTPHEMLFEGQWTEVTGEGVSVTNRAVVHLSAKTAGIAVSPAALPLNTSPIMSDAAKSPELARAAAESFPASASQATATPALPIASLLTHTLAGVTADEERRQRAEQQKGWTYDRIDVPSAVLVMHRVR
UniProt Q4QGN6: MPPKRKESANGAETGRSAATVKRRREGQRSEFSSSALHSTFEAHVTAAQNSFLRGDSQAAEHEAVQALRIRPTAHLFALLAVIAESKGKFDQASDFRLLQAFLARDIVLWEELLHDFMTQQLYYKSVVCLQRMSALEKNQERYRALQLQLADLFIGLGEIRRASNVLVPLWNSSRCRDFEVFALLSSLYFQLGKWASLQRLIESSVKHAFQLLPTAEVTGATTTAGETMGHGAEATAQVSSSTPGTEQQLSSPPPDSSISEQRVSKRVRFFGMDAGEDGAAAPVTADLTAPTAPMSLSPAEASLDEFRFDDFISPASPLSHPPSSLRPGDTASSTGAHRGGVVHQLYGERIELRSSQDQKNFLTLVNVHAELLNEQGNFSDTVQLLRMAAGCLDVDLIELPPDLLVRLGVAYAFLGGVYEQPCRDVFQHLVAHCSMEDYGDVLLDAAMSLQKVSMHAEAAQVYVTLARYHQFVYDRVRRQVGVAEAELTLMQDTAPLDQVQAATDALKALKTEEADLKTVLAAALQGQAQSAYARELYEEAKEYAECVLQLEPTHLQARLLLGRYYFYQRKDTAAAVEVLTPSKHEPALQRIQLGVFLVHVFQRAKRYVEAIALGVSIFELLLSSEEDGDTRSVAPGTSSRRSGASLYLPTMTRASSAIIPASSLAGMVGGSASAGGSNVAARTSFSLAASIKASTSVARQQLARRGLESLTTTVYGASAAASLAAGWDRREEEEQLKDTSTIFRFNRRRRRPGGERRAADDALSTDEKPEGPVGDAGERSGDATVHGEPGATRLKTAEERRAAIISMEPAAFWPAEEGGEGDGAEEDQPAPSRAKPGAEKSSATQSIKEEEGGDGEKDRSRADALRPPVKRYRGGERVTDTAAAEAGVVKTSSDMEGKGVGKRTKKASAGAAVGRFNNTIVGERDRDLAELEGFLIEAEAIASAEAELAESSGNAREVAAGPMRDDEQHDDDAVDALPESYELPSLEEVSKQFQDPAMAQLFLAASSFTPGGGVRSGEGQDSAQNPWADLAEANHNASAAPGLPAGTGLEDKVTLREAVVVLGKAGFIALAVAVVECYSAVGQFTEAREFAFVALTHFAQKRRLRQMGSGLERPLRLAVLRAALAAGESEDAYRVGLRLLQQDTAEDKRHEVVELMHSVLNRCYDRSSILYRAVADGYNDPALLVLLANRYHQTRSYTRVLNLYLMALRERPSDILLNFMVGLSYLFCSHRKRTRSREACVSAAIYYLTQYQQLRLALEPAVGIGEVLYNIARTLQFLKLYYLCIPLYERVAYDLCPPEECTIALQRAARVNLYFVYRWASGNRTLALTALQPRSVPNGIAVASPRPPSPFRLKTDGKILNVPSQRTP

Results are given in words; binding and its absence hold for the method and conditions named. In cells and extracts the contact can be indirect. A yes stands for co-enrichment or nearness to the bait. Other partners may have been found.

B1: TFIIIC subunit Tau131 (T. brucei) (protein, UniProt Q4GYJ1 1-1182)
chain: MASNQQDANIGVVDRQTEPKRRRRSSGTAFSSMELHRRFEEHVAKAQQLFLQGNKDGAEQEATLALRIHPTDHLFALLAVIAESKGQFNRASDLRLLQAFMANDAVLWEELLHEFMQERLYYKSAVCLHRLAVLETRDKVRYRTLQLQLADLYIGLGEFKRAAHILISLWNGSRCRDFEVFAMLSSLFFQLGRWNSLHRLIESSLKSTFRPVVCTMEGGEKPPDAPSSRLGREPSTVEGKEELTAPMARRRVPRRVRFFGVDDNDECDNDTDSVVKRAEGIQQAGSLSQPTPTVDNTCLAEALCEGDDFDFTSEGCDSQSVHGIRSGACATPSAVIHSMYGDSVKFRTATDKKNFLTLVNVHAELLNEEGNFPDTVRLVEFAAGCLNVSLLELHPDLLVRLGVAYAFLGGMEQQCREVFHHLVDTCPMAEYGDVLYDAANALQQVGLHTEARMLFQTVRRYHEFRMKGSNGNADDGNNLDDEEKTEVKTVFVAALFAESQCEASLGNIEVACDNLCRVLEVDPHHLQSRLALGRLCMYDMNDTERAIEVLTPRESEPPLERIQLAAELVRVFARSKKYVEAIALGVSVFELIMSSQYEGDADSVAPGSTRRSTAPLSMPTLSPASSAIIPPSAISDIVNGPRLSSSADLSSTRLSHALATSIRASSVAFRINLARRGGTPLTASVYGASAAASTVAGWSHGDEETGQKDSSTIFRFNRTLKPVGCLRPVNKGTCNRKCPRAADEGDVDTEDDCRRARKRRREEEVAQRDVRSFWKEHADSDTDNCGEPSNQENETEHQMEQGGAHLSTDKKSENEDEGPCIDDGSDDGDATRFELPSLEEVSKQFGDSYMQELFMQASSNEAMTSAGHMPASNVGGTIALDNVLGDDTEAGLGQAAAPLRVTMRDALKVLGCAGFIELAVTVVDCYGAIGKFTEAKEFAFVVLIGCQRTSIFRHLVTMERPLRWAVLRAALASGECEDAYRVGIRLLQEQCSEQEKDRILELLFGVLNRTEMGSSILLRLVAGGYQENPSVLVLLGNRYFLRRTYIRALNMYLAAMQRRPNDVLVCFLVGVCFLLVSHQKRIRARNACVVSAWHYLLRYQGALRDIGPQRQAEATYNCARALQYLGLHHLSTPLYEQVAYEYSVPEQCSLPLQRAARFNLYFTYRWRTGNSRLALDALQPRF

One experiment concerns the target LmTau95-PTP (L. major) (UniProt Q4QC86). The experiment can be described thus: affinity purification with mass spectrometry; tandem affinity purification from the L. major LmTau95-PTP cell line (IgG affinity chromatography, TEV protease elution, anti-Prot C affinity chromatography), eluate on SDS-PAGE, in-gel tryptic digestion, LC-MS/MS; two purifications; mock purification from wild-type cells as control.
As for “Asparaginyl-tRNA synthetase (L. major) (from UniProt Q4Q2W6)”, the binding entry is on record as “binds”.
On the same count and under the same terms, then “C17/RPC9 (RNAP III) (L. major) (from UniProt E9ACM4)”, with “binds”.
As for “Nop56, rRNA processing (L. major) (from UniProt Q4QHJ7)”, the binding result was “binds”.
Turning to “Nucleolar RNA helicase II (L. major) (from UniProt Q4QJI9)”, the binding entry is listed as “binds”.
Take “PAF1 complex novel subunit (L. major) (from UniProt E9ADW9)”: the binding entry is “binds”.
On the same count and under the same terms, then “Ras-like small GTPases LmjF.36.5880 (from UniProt Q4Q0H2)”, with “binds”; and “Replication factor C, subunit 1 (L. major) (from UniProt Q4QAN4)”, with “binds”; and “Replication factor C, subunit 2 (L. major) (from UniProt Q4Q732)”, with “binds”.
On to “RuvB-like DNA helicase (LmjF.34.2610) (from UniProt Q4Q2T4)”, for which the binding entry was “binds”.
Regarding “TFIIIC subunit Tau55 (L. major) (from UniProt E9AD76)”, the binding entry is “binds”.
Take “TFIIIC subunit Tau131 (L. major) (from UniProt Q4QGN6)”: the binding entry is “binds”.

A further experiment deals with TbTau95-PTP (T. brucei). The experiment can be described thus: affinity purification with mass spectrometry; tandem affinity purification from the T. brucei TbTau95-PTP cell line (IgG affinity chromatography, TEV protease elution, anti-Prot C affinity chromatography), eluate on SDS-PAGE, in-gel tryptic digestion, LC-MS/MS; two purifications; mock purification from wild-type cells as control.
Regarding B1, the binding result is recorded as “binds”.
